Laboratory results reported in PMC8348300.

Test system: human alpha-thrombin (Homo sapiens)
Test: binding assay
Conditions: literature value, introduction prints 106 ± 5.1 nM; SPR (OpenSPR, immobilized thrombin): PBS, 0.005% Tween 20, 10 mM KCl, pH 7.4; TBA 1-16 uM (1-8 uM per Results), annealed 95 C 5 min then cooled to room temperature; commercial protein; folded or branched DNA

With GGTTGGTGTGGTTGG [TBA (native)] the Kd was 103 nM.

For at least one entry, the source does not settle the construct or the ends of the probe.
